Laboratory results published in article doi:10.1101/218206.
No constants are given. Whether binding was seen depends on the method and setting. Some results given as binding are weak or reduced against the parent protein; the word gives no strength.

Biological target: T1, C11ORF70 (human) (UniProt Q9BRQ4)
T1 sequence: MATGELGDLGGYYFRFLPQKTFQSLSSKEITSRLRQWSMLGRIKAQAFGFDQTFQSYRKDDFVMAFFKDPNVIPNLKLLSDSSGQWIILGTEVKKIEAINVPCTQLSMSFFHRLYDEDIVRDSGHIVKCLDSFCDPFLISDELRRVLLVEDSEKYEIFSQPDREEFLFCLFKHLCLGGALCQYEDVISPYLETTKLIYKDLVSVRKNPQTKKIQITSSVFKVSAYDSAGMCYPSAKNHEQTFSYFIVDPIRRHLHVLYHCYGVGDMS
Assay: two-hybrid

binding: binds
B1: DNAAF2 (protein, UniProt Q9NVR5 1-837)
chain: MAKAAASSSLEDLDLSGEEVQRLTSAFQDPEFRRMFSQYAEELTDPENRRRYEAEITALERERGVEVRFVHPEPGHVLRTSLDGARRCFVNVCSNALVGAPSSRPGSGGDRGAAPGSHWSLPYSLAPGREYAGRSSSRYMVYDVVFHPDALALARRHEGFRQMLDATALEAVEKQFGVKLDRRNAKTLKAKYKGTPEAAVLRTPLPGVIPARPDGEPKGPLPDFPYPYQYPAAPGPRAPSPPEAALQPAPTEPRYSVVQRHHVDLQDYRCSRDSAPSPVPHELVITIELPLLRSAEQAALEVTRKLLCLDSRKPDYRLRLSLPYPVDDGRGKAQFNKARRQLVVTLPVVLPAARREPAVAVAAAAPEESADRSGTDGQACASAREGEAGPARSRAEDGGHDTCVAGAAGSGVTTLGDPEVAPPPAAAGEERVPKPGEQDLSRHAGSPPGSVEEPSPGGENSPGGGGSPCLSSRSLAWGSSAGRESARGDSSVETREESEGTGGQRSACAMGGPGTKSGEPLCPPLLCNQDKETLTLLIQVPRIQPQSLQGDLNPLWYKLRFSAQDLVYSFFLQFAPENKLSTTEPVISISSNNAVIELAKSPESHGHWREWYYGVNNDSLEERLFVNEENVNEFLEEVLSSPFKQSMSLTPPLIEVLQVTDNKIQINAKLQECSNSDQLQGKEERVNEESHLTEKEYIEHCNTPTTDSDSSIAVKALQIDSFGLVTCFQQESLDVSQMILGKSQQPESKMQSEFIKEKSATCSNEEKDNLNESVITEEKETDGDHLSSLLNKTTVHNIPGFDSIKETNMQDGSVQVIKDHVTNCAFSFQNSLLYDLD
